No constants are given. Whether binding was seen depends on the method and setting. In cells and extracts the contact can be indirect. Some binding calls cover weakened binding; strength is not graded here.
Target: Protein disulfide isomerase (rat (endogenous in hippocampus)) (UniProt P04785)
Test: co-IP; rat hippocampal tissue lysed in RIPA buffer with protease and phosphatase inhibitors and 1 mM sodium orthovanadate; 150 ug protein precipitated with the PDI antibody (10 ug/ml) and protein G sepharose at 4 °C overnight; Western blot for P2X7R; animals: control or 3 days after pilocarpine-induced SE, infused with vehicle or L-NAME, control siRNA or PDI siRNA

By UniProt entry, the sequences of proteins in these tests, tags left out. Residues count along the entry.
UniProt P04785, residues 20-509: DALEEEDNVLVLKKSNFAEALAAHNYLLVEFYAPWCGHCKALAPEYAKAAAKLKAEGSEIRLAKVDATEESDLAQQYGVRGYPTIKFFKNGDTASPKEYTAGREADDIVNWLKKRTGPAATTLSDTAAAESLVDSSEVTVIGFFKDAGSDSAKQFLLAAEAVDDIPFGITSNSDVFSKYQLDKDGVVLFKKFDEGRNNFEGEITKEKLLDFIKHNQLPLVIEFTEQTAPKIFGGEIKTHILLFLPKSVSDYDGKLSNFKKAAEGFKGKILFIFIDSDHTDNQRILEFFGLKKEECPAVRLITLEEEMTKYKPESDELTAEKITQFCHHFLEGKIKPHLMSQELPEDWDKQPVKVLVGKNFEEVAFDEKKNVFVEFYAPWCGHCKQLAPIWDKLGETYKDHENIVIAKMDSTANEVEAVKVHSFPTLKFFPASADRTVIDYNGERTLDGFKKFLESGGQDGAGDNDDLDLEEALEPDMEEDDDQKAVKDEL

B1: P2X7 receptor (receptor, UniProt Q64663 1-595)
chain: MPACCSWNDVFQYETNKVTRIQSVNYGTIKWILHMTVFSYVSFALMSDKLYQRKEPLISSVHTKVKGVAEVTENVTEGGVTKLVHGIFDTADYTLPLQGNSFFVMTNYLKSEGQEQKLCPEYPSRGKQCHSDQGCIKGWMDPQSKGIQTGRCIPYDQKRKTCEIFAWCPAEEGKEAPRPALLRSAENFTVLIKNNIDFPGHNYTTRNILPGMNISCTFHKTWNPQCPIFRLGDIFQEIGENFTEVAVQGGIMGIEIYWDCNLDSWSHRCQPKYSFRRLDDKYTNESLFPGYNFRYAKYYKENGMEKRTLIKAFGVRFDILVFGTGGKFDIIQLVVYIGSTLSYFGLATVCIDLIINTYASTCCRSRVYPSCKCCEPCAVNEYYYRKKCEPIVEPKPTLKYVSFVDEPHIWMVDQQLLGKSLQDVKGQEVPRPQTDFLELSRLSLSLHHSPPIPGQPEEMQLLQIEAVPRSRDSPDWCQCGNCLPSQLPENRRALEELCCRRKPGQCITTSELFSKIVLSREALQLLLLYQEPLLALEGEAINSKLRHCAYRSYATWRFVSQDMADFAILPSCCRWKIRKEFPKTQGQYSGFKYPY
binding: binds

From paper PMC7788848
